Consider one substance from publication PMC9758055.

Protein sequences, listed by entry. Tags and fused reporters are not part of them.
UniProt P20226: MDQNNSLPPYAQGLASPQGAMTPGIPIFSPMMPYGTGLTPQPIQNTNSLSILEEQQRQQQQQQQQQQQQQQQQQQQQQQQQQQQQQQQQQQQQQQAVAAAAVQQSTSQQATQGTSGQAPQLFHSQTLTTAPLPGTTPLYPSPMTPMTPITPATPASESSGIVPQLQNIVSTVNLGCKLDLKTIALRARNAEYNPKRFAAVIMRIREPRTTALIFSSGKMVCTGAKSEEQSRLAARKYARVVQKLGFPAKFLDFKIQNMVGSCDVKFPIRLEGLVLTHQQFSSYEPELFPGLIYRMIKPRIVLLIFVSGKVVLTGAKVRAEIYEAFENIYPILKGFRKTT

This test has as its target TATA box-binding protein TBP (human) (UniProt P20226). Description: co-sedimentation; SNAPc (FL or core) pre-incubated with snRNA promoter DNA, then TFIIA–TFIIB, TBP, pre-formed Pol II–TFIIF and TFIIE added; 10–30% sucrose-gradient ultracentrifugation, 175,000g, 16 h, 4 °C; fractions analysed by SDS–PAGE; both purified.

No constants are given. Whether binding was seen depends on the method and setting. Some results given as binding are weak or reduced against the parent protein; the word gives no strength.

As for “SNAPc-FL (snRNA-activating protein complex with all full-length subunits) (from UniProt Q16533 1-368; Q13487 1-334; Q92966 1-411; Q5SXM2 1-1469; O75971 1-98)”, the binding result is given as “binds”.
